# Test results: the supplement of paper PMC3334620
# In all, about 33,000 sequences were measured (“E-score (-0.5 to 0.5)”: median about -0.0014, highest 2% from about 0.25 on). Some of the results follow.
# Biological target: T1, Cad1 (UniProt P24813)
# T1 sequence: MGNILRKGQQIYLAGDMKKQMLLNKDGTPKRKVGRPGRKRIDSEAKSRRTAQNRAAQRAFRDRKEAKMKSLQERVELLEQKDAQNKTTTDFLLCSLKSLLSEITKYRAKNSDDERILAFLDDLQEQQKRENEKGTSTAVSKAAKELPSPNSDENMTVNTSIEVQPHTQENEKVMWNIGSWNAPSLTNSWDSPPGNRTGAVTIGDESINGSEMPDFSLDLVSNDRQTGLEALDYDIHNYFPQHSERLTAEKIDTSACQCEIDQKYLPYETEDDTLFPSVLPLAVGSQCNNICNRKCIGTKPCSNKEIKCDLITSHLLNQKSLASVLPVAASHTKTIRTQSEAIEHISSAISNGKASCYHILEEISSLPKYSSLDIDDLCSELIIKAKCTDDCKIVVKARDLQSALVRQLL
# Assay: PBM E-score (8-mer binding enrichment) (E-score (-0.5 to 0.5)); higher = stronger / more preferred TF binding
# Conditions: protein concentration: 100 nM; construct: GST-full length
# Procedure, shortened: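 Detection of bound protein used fluorescent anti-GST, with scans normalised by masliner. The proteins were GST-tagged yeast transcription factors applied at about 100-200 nM to universal all-10-mer Agilent arrays made double-stranded by primer extension. Each ungapped eight-base word, pooled with its reverse complement, was scored with an E-score from the Universal PBM Analysis Suite.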
row,Sequence,PBM E-score
1,AGCCACGC,-0.148
2,CCAATGGC,0.0149
3,AGTCAGCC,0.0809
4,GATAAAAC,0.244
5,CCGAGTCA,-0.0617
6,TACCCGGA,0.12
7,AACACTGC,0.188
8,ACTACGGA,-0.0161
9,ATTCAAGC,0.164
10,TCTGGTCA,0.086
11,CAATCATA,0.148
12,TAAGGGCA,-0.0845
13,ATCGGTAG,0.0904
14,ACCAGGGC,-0.111
15,CACTAGGC,-0.0903
16,AGGAGTGG,-0.192
17,CACCAAAA,0.112
18,ATAAAGAA,0.0488
19,TAGTCATA,0.108
20,GGAAGACA,-0.0527
21,AATACCAT,0.197
22,AAAAGGTA,-0.162
23,ACTCCGAA,-0.046
24,CATGTAAA,-0.0641

row,Sequence,PBM E-score
1,ACTATTAG,0.063
2,CTGATCTA,-0.103
3,AGCAGCGG,-0.0904
4,ACCGCTCT,-0.121
5,CTACCCCA,-0.101
6,GAGACCGC,-0.183
7,CGCTTGTC,0.0361
8,GTGCTGTA,-0.0115
9,AATCGTAA,0.105
10,CCAGCATC,-0.0679
11,CATGAATC,-0.0716
12,CCGGCTGA,0.118
13,CACTACCG,-0.225
14,GGGGCGTA,-0.266
15,CCAGCTCA,-0.0848
16,ACTTTGTC,0.11
17,ACCATTCA,0.0483
18,ACAGCCGC,-0.0506
19,CAACGCGG,0.0152
20,ATTGACCG,0.174
21,CCCAGATA,-0.0901
22,ATCTTATA,0.172
23,ACAAGCCG,-0.08
24,GAACACGA,0.143

# Reformatted: results already given
row	Sequence	PBM E-score
2	CTGATCTA	-0.103
8	GTGCTGTA	-0.0115
24	GAACACGA	0.143

# The listing continues.

row,Sequence,PBM E-score
1,GGTTCAAC,0.0424
2,AAGATAGT,-0.00871
3,ATAGAGTA,-0.0847
4,TCGACACA,0.164
5,GGTGCGAA,0.0553
6,CACTACTG,-0.0387
7,AATAACAA,0.143
8,GAAGGCCA,-0.207
9,CCAAGCCA,-0.0621
10,AAGAAAAG,0.0936
11,TCGTACAA,0.0306
12,ACGCTTTC,-0.0918
13,CTGGCATC,-0.203
14,AGGGCCTA,-0.141
15,AATGTGCT,0.13
16,TCCGGTCA,0.0639
17,AATCCGCA,0.116
18,CTATGGTC,-0.0374
19,CTGGCGTA,-0.213
20,AAGGTATC,-0.112
21,CTGCCCCA,-0.0143
22,ATCGGGTG,0.164
23,ATACACGC,0.0792
24,AACACAAT,0.152

row,Sequence,PBM E-score
1,ATTGTACG,0.00568
2,GTCCAGTA,-0.0673
3,GCTATGAA,0.0731
4,GAAACTAA,0.0886
5,AAGGGCCA,-0.0941
6,CGCGCAAA,0.227
7,ACTCCTAA,-0.126
8,ATAACATA,0.174
9,ACTGCGTA,-0.0751
10,CGCCCGAG,0.202
11,CTGGGTAA,0.0587
12,TCCACTAA,0.14
13,AGCGTCGA,0.2
14,CAAACAGC,0.0166
15,CGACGGTC,-0.223
16,GGTTGGAC,-0.182
17,AAGTGCTA,-0.257
18,AGCTTTCA,-0.0845
19,ACCCCGAT,0.0143
20,AATGGCCA,-0.019
21,GCTGCATA,0.197
22,GATCATGA,0.026

# Another view of part of the listing above:
row	Sequence	PBM E-score
14	CAAACAGC	0.0166
15	CGACGGTC	-0.223
